Data on three substances can be found in publication doi:10.1101/569459 (bioRxiv, 2019).

Amino acid sequences for entries named in this document (tags omitted).
UniProt O14578: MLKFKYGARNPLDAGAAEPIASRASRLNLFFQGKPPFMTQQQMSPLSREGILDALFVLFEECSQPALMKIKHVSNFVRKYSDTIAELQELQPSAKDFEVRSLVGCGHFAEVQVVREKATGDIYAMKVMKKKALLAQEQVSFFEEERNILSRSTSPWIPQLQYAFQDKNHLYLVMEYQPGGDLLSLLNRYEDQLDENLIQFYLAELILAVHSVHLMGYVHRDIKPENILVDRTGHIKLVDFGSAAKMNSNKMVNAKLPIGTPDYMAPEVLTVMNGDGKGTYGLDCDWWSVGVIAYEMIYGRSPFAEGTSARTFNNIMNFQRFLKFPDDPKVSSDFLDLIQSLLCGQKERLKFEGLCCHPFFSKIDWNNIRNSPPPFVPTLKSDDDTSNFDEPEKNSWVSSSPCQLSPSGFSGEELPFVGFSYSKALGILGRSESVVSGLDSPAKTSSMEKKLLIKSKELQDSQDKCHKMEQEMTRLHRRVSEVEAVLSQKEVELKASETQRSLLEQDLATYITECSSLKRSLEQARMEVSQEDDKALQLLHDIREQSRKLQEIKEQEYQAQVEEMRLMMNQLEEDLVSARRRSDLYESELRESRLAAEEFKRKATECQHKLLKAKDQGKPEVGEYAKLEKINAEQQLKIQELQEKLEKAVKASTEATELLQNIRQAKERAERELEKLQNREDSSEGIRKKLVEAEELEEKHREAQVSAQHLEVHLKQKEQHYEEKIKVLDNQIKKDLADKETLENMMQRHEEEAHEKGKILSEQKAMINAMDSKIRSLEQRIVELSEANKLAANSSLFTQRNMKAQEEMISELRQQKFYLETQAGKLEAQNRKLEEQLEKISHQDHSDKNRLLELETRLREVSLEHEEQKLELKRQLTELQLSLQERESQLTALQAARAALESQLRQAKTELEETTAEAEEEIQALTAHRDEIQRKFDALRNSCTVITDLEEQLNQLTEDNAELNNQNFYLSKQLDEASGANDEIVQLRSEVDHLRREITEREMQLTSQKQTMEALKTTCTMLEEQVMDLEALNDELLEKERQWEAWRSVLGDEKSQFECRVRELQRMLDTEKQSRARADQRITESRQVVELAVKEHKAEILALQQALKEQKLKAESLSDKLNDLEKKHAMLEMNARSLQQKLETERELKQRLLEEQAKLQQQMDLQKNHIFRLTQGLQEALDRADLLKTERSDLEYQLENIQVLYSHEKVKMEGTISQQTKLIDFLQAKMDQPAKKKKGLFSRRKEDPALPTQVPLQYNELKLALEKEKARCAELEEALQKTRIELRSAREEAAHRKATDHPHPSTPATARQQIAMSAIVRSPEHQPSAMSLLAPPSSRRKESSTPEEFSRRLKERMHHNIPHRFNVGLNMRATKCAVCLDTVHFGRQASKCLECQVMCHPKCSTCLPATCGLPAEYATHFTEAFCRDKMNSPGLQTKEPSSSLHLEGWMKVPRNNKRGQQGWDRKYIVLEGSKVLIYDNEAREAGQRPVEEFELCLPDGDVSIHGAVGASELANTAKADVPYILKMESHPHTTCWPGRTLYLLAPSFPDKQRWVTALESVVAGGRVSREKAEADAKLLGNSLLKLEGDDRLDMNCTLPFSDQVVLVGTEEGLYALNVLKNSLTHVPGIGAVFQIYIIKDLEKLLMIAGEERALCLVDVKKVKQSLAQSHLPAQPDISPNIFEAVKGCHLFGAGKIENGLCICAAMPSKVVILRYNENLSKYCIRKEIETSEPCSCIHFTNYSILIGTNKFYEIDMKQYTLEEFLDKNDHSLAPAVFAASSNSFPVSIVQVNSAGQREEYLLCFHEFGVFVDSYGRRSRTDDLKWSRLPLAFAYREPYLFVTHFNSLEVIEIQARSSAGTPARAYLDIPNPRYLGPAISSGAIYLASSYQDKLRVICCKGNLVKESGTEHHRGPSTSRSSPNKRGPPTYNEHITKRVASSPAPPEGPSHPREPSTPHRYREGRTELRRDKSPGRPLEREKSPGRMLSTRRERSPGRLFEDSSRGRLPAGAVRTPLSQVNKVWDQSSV
UniProt P62140: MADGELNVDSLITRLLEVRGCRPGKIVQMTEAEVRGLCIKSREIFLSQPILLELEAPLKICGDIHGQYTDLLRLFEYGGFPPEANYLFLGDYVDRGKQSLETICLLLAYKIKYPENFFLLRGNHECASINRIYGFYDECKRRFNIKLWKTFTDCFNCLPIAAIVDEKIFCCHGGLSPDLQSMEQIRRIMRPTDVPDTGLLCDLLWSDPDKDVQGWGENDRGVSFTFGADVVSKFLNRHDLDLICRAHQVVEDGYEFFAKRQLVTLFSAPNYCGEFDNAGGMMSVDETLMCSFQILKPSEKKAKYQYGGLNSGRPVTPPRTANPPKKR

Test in all cases: pull-down
Experiment [1] concerns the target T1, GFP-MKLP1 (UniProt Q02241).
T1 sequence: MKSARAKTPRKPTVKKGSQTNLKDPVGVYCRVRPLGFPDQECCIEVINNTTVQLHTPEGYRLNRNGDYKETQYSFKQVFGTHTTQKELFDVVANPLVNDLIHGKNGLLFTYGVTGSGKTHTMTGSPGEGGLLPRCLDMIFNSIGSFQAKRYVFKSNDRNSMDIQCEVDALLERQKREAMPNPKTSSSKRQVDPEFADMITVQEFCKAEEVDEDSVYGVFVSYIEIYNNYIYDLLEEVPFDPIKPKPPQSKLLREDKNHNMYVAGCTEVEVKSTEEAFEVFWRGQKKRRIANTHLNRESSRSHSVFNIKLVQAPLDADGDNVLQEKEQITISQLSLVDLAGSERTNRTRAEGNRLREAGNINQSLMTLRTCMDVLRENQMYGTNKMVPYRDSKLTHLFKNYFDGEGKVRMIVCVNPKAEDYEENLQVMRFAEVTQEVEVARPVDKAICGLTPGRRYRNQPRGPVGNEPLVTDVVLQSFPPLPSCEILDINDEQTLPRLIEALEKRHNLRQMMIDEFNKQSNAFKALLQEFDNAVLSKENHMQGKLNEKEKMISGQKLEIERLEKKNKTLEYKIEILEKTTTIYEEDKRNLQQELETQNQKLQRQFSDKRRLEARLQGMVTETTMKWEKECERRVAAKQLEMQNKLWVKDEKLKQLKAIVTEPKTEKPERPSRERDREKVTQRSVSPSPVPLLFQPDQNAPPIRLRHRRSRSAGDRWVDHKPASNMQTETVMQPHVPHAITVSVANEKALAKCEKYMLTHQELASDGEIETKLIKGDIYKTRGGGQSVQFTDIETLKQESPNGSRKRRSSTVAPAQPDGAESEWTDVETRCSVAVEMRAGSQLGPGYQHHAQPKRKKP

For the next experiment, the target named is T2, MBP-MKLP1^AQA (UniProt Q02241).
T2 sequence: T1 sequence with V786A, F788A

Experiment [2] addresses T3, MBP-MKLP1 (full length, wild type) (UniProt Q02241).
T3 sequence: T1 sequence

Experiment [3] has as its target T1, GFP-MKLP1. This is another data set of the same source.

Residue numbers refer to the chain shown, from its start. Like-named read-outs stand apart in the source and are kept apart here. No constants are given. Whether binding was seen depends on the method and setting. In cells and extracts the contact can be indirect. Some results given as binding are weak or reduced against the parent protein; the word gives no strength. Sequences can lack the tags named with a protein.

As to “Citron kinase (endogenous) (from UniProt O14578 1-2027) (enzyme)”, in the experiment with GFP-MKLP1 [1], the binding result is “binds”.
As for “GST-PP1β (from UniProt P62140 1-327) (enzyme)”, the binding result (with MBP-MKLP1^AQA; in experiment [2]) was “binds” in each case.
On to “PP1β (endogenous) (from UniProt P62140 1-327) (enzyme)”, for which the binding result was “binds” with GFP-MKLP1 [1] and “binds weakly” in the experiment with GFP-MKLP1 [3].
